From article PMC10157730
No constants are given. Whether binding was seen depends on the method and setting. Binding seen in cells or lysates may run through a third protein. Some results given as binding are weak or reduced against the parent protein; the word gives no strength. Tags and fused reporters may be left off the sequences shown.

By UniProt entry, the sequences of proteins in these tests, tags left out.
UniProt P40763: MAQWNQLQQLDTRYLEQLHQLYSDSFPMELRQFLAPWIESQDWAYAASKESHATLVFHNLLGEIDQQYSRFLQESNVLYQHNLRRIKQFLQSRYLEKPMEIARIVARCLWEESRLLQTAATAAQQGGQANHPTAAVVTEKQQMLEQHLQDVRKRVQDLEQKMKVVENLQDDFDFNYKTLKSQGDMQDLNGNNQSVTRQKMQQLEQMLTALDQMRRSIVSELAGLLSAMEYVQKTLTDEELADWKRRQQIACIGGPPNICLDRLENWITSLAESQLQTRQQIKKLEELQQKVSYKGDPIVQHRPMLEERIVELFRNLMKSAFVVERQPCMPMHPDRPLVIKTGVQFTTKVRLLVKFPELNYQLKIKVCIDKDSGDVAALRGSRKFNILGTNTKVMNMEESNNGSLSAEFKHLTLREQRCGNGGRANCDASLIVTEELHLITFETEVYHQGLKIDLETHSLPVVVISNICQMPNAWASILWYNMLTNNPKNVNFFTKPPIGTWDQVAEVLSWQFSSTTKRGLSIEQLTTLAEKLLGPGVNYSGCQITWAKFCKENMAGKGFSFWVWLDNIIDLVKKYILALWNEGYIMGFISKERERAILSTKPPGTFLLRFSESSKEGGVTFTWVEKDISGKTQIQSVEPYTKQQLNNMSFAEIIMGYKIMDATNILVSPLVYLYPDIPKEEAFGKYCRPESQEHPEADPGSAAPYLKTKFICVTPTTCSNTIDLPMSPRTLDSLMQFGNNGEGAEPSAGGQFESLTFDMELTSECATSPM
UniProt P52631: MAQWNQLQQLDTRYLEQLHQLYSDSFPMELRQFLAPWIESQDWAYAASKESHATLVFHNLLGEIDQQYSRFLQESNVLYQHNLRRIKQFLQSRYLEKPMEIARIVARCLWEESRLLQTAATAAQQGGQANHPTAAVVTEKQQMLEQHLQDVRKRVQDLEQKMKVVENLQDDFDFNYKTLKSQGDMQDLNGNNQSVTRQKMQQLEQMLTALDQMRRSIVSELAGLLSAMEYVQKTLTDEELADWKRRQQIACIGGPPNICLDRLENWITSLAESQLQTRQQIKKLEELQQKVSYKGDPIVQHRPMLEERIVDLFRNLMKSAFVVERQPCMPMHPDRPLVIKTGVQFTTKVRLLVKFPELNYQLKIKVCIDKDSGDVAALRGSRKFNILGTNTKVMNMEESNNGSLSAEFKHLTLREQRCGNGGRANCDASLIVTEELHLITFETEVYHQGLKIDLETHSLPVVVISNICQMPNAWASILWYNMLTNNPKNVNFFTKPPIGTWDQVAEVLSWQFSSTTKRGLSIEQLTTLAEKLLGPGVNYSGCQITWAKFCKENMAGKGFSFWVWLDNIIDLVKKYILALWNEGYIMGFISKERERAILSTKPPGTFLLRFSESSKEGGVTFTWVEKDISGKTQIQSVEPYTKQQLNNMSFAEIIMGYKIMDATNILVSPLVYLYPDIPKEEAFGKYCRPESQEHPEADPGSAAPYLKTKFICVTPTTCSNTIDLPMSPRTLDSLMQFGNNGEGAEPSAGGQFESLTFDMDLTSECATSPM

How the values were obtained:
[1] = molecular target: T1, Flag-tagged OTUD1 expressed in HEK-293T cells (UniProt Q5VV17); assay: co-IP; HEK-293T transfected with Flag-tagged OTUD1; lysates immunoprecipitated with anti-OTUD1, STAT3 detected by immunoblotting; IgG control
T1 sequence: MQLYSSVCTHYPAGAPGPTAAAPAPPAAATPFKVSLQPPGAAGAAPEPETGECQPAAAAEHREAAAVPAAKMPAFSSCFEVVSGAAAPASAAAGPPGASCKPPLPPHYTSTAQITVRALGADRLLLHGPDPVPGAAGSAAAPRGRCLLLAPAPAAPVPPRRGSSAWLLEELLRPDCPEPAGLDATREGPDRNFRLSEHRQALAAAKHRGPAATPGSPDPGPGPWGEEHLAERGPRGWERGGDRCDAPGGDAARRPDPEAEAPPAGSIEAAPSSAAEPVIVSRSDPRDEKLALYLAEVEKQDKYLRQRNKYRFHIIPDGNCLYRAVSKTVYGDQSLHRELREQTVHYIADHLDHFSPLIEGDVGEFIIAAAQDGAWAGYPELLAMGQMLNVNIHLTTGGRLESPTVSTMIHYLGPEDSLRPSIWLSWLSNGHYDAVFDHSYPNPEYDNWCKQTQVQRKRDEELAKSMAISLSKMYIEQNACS

[2] = molecular target: T2, Flag-tagged OTUD1 expressed in neonatal rat ventricular myocytes (UniProt Q5VV17); assay: co-IP; NVRMs transfected with Flag-tagged OTUD1; lysates immunoprecipitated with anti-OTUD1, STAT3 detected by immunoblotting; IgG control
T2 sequence: T1 sequence

binding [1] | binding [2] | Substance
binds |  | STAT3, endogenous in HEK-293T cells (from UniProt P40763 1-770)
 | binds | signal transducer and activator of transcription 3 (STAT3), endogenous in neonatal rat ventricular myocytes (from UniProt P52631 1-770)
